Laboratory results reported in US9988379B2, “GPR40 receptor agonist, methods of preparing the same, and pharmaceutical compositions containing the same as an active agent” (LG CHEM, LTD., priority 2012, dated 2018).
Where two headings read alike, the source gives them in different places. Structures were worked out from names or drawings and are uncertain.

Protein sequences, listed by entry. Tags and fused reporters are not part of them.
UniProt O14842, whole entry: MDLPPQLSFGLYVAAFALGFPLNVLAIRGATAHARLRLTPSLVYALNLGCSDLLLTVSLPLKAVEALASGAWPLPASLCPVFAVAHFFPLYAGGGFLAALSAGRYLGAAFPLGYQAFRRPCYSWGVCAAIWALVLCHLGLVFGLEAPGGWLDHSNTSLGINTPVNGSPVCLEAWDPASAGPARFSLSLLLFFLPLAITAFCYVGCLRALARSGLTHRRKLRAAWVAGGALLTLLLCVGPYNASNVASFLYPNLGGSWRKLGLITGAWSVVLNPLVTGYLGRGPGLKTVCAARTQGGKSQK

Biological target: human GPR40 (Homo sapiens, UniProt O14842)
Assay: Induction of Ca2+ (calcium flux assay) using human GPR40 expression cell line
Type: cell-based
Settings: read-out: EC0.5, CHO-K1 cells expressing human GPR40, concentration giving 50% of the intracellular calcium change induced by 10 μM TAK-875

Row | EC50 (class symbols) [nM] | Compound | EC50 (numeric values) [nM]
1 |  | O=C(O)C[C@@H](c1ccc(OCc2ccc3ccn(Cc4cnccn4)c3n2)cc1)c1ccon1 | 800
2 | 50 to 500 | CC#C[C@@H](CC(=O)O)c1ccc(OCc2cccc3c2cnn3Cc2cnc(C)cn2)cc1 | 
3 |  | O=C(O)CC1COc2cc(OCc3ccc4cnn(CC5CCCC5)c4c3)ccc21 (stereo not drawn) | 500
